In article PMC9551036, “A selective and orally bioavailable VHL-recruiting PROTAC achieves SMARCA2 degradation in vivo” (Nature Communications, 2022):
Several values for one entry are separate records, joined by “and”; a condition that tells them apart may be missing. Equal values may be shown once. Further values from the same series stand in other lists.

Amino acid sequences for entries named in this document (tags omitted).
UniProt P51531, whole entry: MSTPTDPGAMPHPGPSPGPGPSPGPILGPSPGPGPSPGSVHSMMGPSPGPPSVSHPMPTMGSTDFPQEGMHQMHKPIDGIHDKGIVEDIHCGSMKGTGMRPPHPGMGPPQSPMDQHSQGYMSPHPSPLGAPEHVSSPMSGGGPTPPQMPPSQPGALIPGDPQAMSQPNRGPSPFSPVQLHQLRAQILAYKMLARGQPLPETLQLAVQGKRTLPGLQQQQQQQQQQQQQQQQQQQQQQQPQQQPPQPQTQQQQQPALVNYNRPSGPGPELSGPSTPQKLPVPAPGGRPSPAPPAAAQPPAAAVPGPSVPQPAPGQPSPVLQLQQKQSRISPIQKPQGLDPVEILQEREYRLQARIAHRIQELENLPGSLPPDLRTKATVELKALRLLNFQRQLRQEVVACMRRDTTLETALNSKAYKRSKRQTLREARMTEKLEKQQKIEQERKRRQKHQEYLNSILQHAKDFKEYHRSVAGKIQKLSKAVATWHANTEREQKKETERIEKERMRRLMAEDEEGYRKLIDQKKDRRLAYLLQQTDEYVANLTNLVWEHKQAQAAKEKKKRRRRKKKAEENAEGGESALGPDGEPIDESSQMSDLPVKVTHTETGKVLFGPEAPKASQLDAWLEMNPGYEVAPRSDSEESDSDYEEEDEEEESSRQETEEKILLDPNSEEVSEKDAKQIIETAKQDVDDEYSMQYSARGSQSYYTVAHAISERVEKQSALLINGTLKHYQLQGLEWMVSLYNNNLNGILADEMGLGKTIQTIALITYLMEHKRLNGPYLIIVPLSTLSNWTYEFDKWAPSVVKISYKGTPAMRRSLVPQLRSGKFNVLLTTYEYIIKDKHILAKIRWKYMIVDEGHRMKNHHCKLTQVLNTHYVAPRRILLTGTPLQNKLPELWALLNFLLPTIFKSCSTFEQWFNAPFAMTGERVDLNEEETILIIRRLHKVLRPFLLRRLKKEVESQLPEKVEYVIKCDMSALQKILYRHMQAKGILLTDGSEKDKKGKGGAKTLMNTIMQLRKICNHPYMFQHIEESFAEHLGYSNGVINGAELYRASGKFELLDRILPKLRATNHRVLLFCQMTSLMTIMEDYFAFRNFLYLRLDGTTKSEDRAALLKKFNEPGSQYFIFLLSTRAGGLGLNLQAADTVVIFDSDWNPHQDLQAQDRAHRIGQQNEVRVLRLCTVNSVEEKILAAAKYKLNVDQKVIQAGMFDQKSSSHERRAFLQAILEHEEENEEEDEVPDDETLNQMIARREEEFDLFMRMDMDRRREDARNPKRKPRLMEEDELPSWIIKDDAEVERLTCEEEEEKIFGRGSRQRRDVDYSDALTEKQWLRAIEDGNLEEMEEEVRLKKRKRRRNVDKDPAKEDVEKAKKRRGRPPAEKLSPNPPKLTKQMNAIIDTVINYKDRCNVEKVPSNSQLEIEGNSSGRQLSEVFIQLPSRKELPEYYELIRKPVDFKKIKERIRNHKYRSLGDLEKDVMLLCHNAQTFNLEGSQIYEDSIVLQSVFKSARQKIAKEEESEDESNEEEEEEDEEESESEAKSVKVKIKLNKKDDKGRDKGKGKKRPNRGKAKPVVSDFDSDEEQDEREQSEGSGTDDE

Target: SMARCA2 (Homo sapiens, UniProt P51531)
Experiment: SMARCA2 capillary electrophoresis protein assay in other cell lines (A549, NCI-H1568, HCT116, LU99, HCC-364, HCT-15, HCC4006, SK-N-AS)
Type: cell-based
Design: endogenous in cells; host or cells: RKO, NCI-H1568, A549, HCT116, LU99, HCC-364, HCT-15, HCC4006, SK-N-AS
Method: 130,000–200,000 cells were seeded in 24-well plates and incubated until settled down or overnight. Compounds were dissolved in DMSO and added to cells in indicated concentrations using a digital dispenser following an optional media change. Cells were incubated for 4 or 18 h as indicated. For SMARCA2/4 half-life determination, 150,000 or 200,000 cells were seeded in 24-well plates. The next day, 50 µg/ml cycloheximide (Sigma) was added and cells were incubated for 1–24 h. For SMARCA2/4 re-synthesis measurements, 200,000 cells were seeded in 24-well plates. The next day, 100 nM compound 6 was added for 4 h to degrade SMARCA2/4, and a sample was taken as baseline for normalisation. To allow re-synthesis, a VHL binder (compound 32, 25 or 50 µM) was then added for 3 or 24 h. Medium was removed, cells were washed with PBS and lysed with 80 µl Lysis Buffer (MSD Tris Lysis Buffer (#R60TX-2) + Halt Inhibitor Cocktail (100x) + Benzonase 0.5 µL/ml). Samples were frozen at −80 °C and thawed at room temperature before use. Samples were transferred to a V-bottom plate and insoluble debris was pelleted by centrifugation for 5 min at maximum speed. The supernatant was transferred to a fresh plate. Master Mix and Ladder were prepared according to manufacturer’s instructions for 12–230 kDa Wes Separation Module, 8 × 25 capillary cartridges, Protein Simple #SM-W004 with Anti-Rabbit Detection Module for Wes, Peggy Sue or Sally Sue, Protein Simple #DM-001. 4.8 µl lysate were mixed with 1.2 µl Master Mix to achieve a protein concentration of ~0.5 µg/µl. Antibodies were diluted in Antibody Diluent II (SMARCA2 Sigma #HPA029981 RRID:AB_10602406 1:25–100, SMARCA4 Cell Signalling #49360 clone D1Q7F RRID:AB_2728743 1:15–120 or Abcam #ab110641 clone EPNCIR111A RRID:AB_10861578 1:60, GAPDH Abcam #ab9485 RRID:AB_307275 1:250). Wes plates were prepared and run according to manufacturer’s instructions. Proteins were quantified with accompanying Compass Software. SMARCA2/4 protein levels were normalised to GAPDH. […] Where applicable, curves were fitted using a 4-parametric logistic model.

## Cc1ncsc1-c1ccc(C(CCC(C)CCN2CCC(c3ccc4c(c3)n(C3CCCC3)c3nc(=O)c5c(Br)cccc5n43)CC2)NC(=O)C2CC(O)CN2C(=O)C(NC(=O)C2(F)CC2)C(C)(C)C)cc1 (centres unmarked) [ACBI2]
HCC4006_SM2, log10[concentration (mol/l)] -8
  % protein remaining: 81.7716% and 108.051% and 75.827%
HCC4006_SM2, log10[concentration (mol/l)] -9
  % protein remaining: 125.243% and 159.212% and 103.466%
HCC4006_SM2, log10[concentration (mol/l)] -10
  % protein remaining: 118.279% and 101.876% and 108.932%
HCC-364_SM2, log10[concentration (mol/l)] -6
  % protein remaining: 1.845% and 2.699% and 10.7791%
HCC-364_SM2, log10[concentration (mol/l)] -8
  % protein remaining: 44.9697% and 32.5721% and 54.506%
HCC-364_SM2, log10[concentration (mol/l)] -9
  % protein remaining: 110.111% and 128.038%
HCT116, SM2, conc 9.54e-12 mol/l
  % protein remaining: 109.178% and 116.076%
HCT116, SM2, conc 3.81e-11 mol/l
  % protein remaining: 125.868% and 135.077%
HCT116, SM2, conc 1.53e-10 mol/l
  % protein remaining: 114.209% and 133.811%
HCT116, SM2, conc 6.1e-10 mol/l
  % protein remaining: 105.682% and 136.5%
HCT116, SM2, conc 2.44e-9 mol/l
  % protein remaining: 94.7271% and 126.956%
HCT116, SM2, conc 9.77e-9 mol/l
  % protein remaining: 85.6132% and 103.948%
HCT116, SM2, conc 3.91e-8 mol/l
  % protein remaining: 52.5707% and 61.6429%
HCT116, SM2, conc 1.56e-7 mol/l
  % protein remaining: 28.2623% and 33.3993%
HCT116, SM2, conc 6.25e-7 mol/l
  % protein remaining: 19.3606% and 22.8633%
HCT116, SM2, conc 2.5e-6 mol/l
  % protein remaining: 20.1635%
HCT116, SM2, conc 1e-5 mol/l
  % protein remaining: 30.0895%
HCT-15_SM2, log10[concentration (mol/l)] -6
  % protein remaining: 11.5726% and 11.5592% and 17.8109%
HCT-15_SM2, log10[concentration (mol/l)] -7
  % protein remaining: 67.4847% and 59.2301% and 69.1878%
HCT-15_SM2, log10[concentration (mol/l)] -8
  % protein remaining: 119.67% and 115.981% and 70.5009%
HCT-15_SM2, log10[concentration (mol/l)] -10
  % protein remaining: 123.272% and 136.831% and 90.4322%
LU99_SM2, log10[concentration (mol/l)] -6
  % protein remaining: 12.5582%
LU99_SM2, log10[concentration (mol/l)] -9
  % protein remaining: 104.244% and 93.8787% and 101.708% and 131.784% and 99.8989%
LU99_SM2, log10[concentration (mol/l)] -10
  % protein remaining: 107.625% and 126.821% and 111.971% and 126.034% and 118.711%
NCI-H1568, 4h, conc 3.1623e-9 mol/l
  % protein remaining: 61.9619%
SK-N-AS_SM2, log10[concentration (mol/l)] -6
  % protein remaining: 19.2564% and 22.1797%
SK-N-AS_SM2, log10[concentration (mol/l)] -8
  % protein remaining: 83.0566% and 115.308%
SK-N-AS_SM2, log10[concentration (mol/l)] -9
  % protein remaining: 135.175% and 115.217%
SK-N-AS_SM2, log10[concentration (mol/l)] -10
  % protein remaining: 110.512% and 93.3107%
